This experiment deals with c-myc (human (endogenous in NCI-H929 and MM1S)) (UniProt P01106). In words: co-IP; endogenous proteins in total cell lysates of NCI-H929 and MM1S cells, immunoblotting; IP antibodies against mdig, c-myc and JAK1. A general note: A western blot detects proteins with antibodies after separation by electrophoresis.

Amino acid sequences for entries named in this document (tags omitted).
UniProt P01106: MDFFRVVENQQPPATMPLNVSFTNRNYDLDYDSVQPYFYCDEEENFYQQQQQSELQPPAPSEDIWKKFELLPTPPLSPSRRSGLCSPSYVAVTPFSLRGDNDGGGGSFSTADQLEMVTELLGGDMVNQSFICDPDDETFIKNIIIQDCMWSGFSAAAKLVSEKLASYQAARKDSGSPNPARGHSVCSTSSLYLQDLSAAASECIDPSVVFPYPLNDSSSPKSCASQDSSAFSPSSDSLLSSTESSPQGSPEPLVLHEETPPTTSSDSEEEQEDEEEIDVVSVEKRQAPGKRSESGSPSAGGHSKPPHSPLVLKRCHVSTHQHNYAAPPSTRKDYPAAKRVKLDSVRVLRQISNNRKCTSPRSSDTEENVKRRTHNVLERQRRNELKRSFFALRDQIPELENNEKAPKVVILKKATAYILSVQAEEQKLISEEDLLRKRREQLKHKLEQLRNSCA
UniProt Q8IUF8: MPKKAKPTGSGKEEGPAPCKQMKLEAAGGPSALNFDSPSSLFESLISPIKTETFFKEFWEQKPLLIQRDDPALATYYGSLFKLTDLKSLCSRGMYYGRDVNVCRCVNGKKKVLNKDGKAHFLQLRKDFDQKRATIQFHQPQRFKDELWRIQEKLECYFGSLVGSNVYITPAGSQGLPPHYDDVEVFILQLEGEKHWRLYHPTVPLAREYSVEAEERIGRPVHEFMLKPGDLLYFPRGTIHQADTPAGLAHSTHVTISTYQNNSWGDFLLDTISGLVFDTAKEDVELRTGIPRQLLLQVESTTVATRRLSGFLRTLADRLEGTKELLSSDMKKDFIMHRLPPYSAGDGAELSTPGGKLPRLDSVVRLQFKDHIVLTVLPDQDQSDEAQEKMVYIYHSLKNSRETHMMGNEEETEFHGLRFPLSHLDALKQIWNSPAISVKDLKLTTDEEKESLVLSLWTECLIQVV

No constants are given. Whether binding was seen depends on the method and setting. Binding seen in cells or lysates may run through a third protein. Some entries that bind do so weakly or less than the wild type.

For “mdig (mineral dust-induced gene) (from UniProt Q8IUF8 1-465)”, the binding entry is listed as “binds”.
